Measured values from PubChem BioAssay AID485314 (National Center for Advancing Translational Sciences (NCATS), 2010).
Hit rate of the full screen: of about 340,000 compounds, about 4,500 (1.3%) were called active. This list was built around the results that the source calls inconclusive (neither active nor inactive); the mix of calls is not that of the screen. Calls follow the shape of the dose curve; as a rule, active = well fitted inhibition curve with a large enough effect; inconclusive = small, poorly fitted or top-dose-only effect, or another doubt; inactive = no such curve, though single readings can be large or run the other way. Potencies beside an inconclusive call are fits to weak or partial responses and may not hold up.

Molecular target: DNA polymerase beta (Homo sapiens) (UniProt P06746)
Test: qHTS Assay for Inhibitors of DNA Polymerase Beta
Settings: Pol beta primer extension/strand displacement, fluorescence kinetic; activity change, negative = inhibition: at 114 µM (top of the series)
In short: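 Pol beta (10 nM) was preincubated with compound for 15 min at room temperature. The reaction was then started with 50 nM substrate and read immediately and after a further 10 min at room temperature.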
% is scaled to controls: 0 for no effect and ±100 for the full control effect; potency is read from the fitted curve at half-maximal effect.

**Q.** Which “activity change, negative = inhibition” value does the source give for COc1cc([N+](=O)[O-])cc(/C=N/NC(=O)c2ccc(NC(=O)c3ccc(C)cc3)cc2)c1O here?
**A.** inactive: -22.8%

**Q.** For CCOC(=O)c1c(NC(=O)CCCOc2ccc(C)cc2)sc2c1CCC(C)C2 (configuration not stated), which “activity change, negative = inhibition” value is on record?
**A.** inactive: 8.57%

**Q.** With CC(=O)Nc1ccc(S(=O)(=O)NC(C)c2ccccc2)cc1 (configuration not stated) as the compound, how does the Potency read?
**A.** inconclusive: 89.1 µM [inhibitor, single point]

**Q.** For O=C(O)c1ccc(N2C(=O)CC(SC(=Nc3ccccc3)Nc3ccccc3)C2=O)cc1 (configuration not stated), which “activity change, negative = inhibition” value is on record?
**A.** inactive: 5.18%

**Q.** CCN1CCN(c2ncc(C(=O)Nc3cc(Cl)ccc3OC)c3ccccc23)CC1 was tested. Which Potency did it give?
**A.** inconclusive: 89.1 µM [inhibitor, single point]

**Q.** Which Potency does the source give for CC1CN(CCOc2ccccc2-c2ccccc2)CC(C)O1 (configuration not stated) here?
**A.** inconclusive: 28.2 µM [inhibitor, single point]

**Q.** Which Potency does the source give for Cc1nnc(Nc2ccccc2)n(N)c1=O here?
**A.** inconclusive: 70.8 µM [inhibitor, single point]

**Q.** How did the Potency turn out when CCC1(CC)NC(=O)N(CC(=O)Nc2sc3c(c2C(N)=O)CCC3)C1=O was run?
**A.** active: 15.8 µM

**Q.** Which Potency does the source give for COc1cc(-c2cc(=O)c3c(O)c(OC)c(OC)c(O)c3o2)ccc1O here?
**A.** active: 7.08 µM

**Q.** Which Potency does the source give for COCCn1c(SCC(=O)Nc2ccc(C(C)=O)cc2)nc2c([nH]c3ccccc32)c1=O here?
**A.** inconclusive: 1 µM [inhibitor, partial curve, poor fit]

**Q.** With CCOc1ccccc1NC(=O)Nc1ccc2nc(N3CCN(C)CC3)cc(C)c2c1 as the compound, how does the Potency read?
**A.** inconclusive: 44.7 µM [inhibitor, partial curve, poor fit]

**Q.** Which activity change, negative = inhibition does the source give for Cc1nnc(SCC(=O)Nc2ccc(S(=O)(=O)Nc3ccc(Cl)nn3)cc2)s1 here?
**A.** inconclusive: -31.6% [inhibitor]

**Q.** O=C(C/C=N/OCc1ccc(Cl)cc1)c1cnc(-c2ccccc2)s1 was tested. Which Potency did it give?
**A.** inconclusive: 0.447 µM [inhibitor, full curve, poor fit]

**Q.** Which Potency does the source give for Cc1cc2cc(CNC(=O)c3ccc(C)c([N+](=O)[O-])c3)ccc2[nH]1 here?
**A.** inconclusive: 79.4 µM [inhibitor, single point]

**Q.** Which “activity change, negative = inhibition” value does the source give for O=C(O)C1Sc2[nH]c(=O)sc2C2c3ccc(O)cc3OC(=O)C12 (configuration not stated) here?
**A.** inactive: 26.5%

**Q.** With Cc1cccc(NC(=O)COc2ccc(/C=C\c3[nH]c(=O)[nH]c(=O)c3[N+](=O)[O-])cc2)c1 as the compound, how does the Potency read?
**A.** inconclusive: 0.251 µM [inhibitor, full curve, poor fit]

**Q.** With CC(C)[C@@H]1NC(=O)c2cc([N+](=O)[O-])cc(I)c2NCCCC[C@@H](C(=O)NC(CC(=O)O)C(N)=O)NC(=O)[C@H](CO)NC1=O (some centres not stated) as the compound, how does the Potency read?
**A.** inconclusive: 39.8 µM [inhibitor, single point]

**Q.** For O=S(=O)(c1cc(Br)c(Br)s1)N1CCN(c2ccccc2)CC1, which Potency is on record?
**A.** inconclusive: 56.2 µM [inhibitor, single point]

**Q.** For COc1ccc(-c2cc(C)no2)cc1S(=O)(=O)N1CC(=O)Nc2ccccc21, which activity change, negative = inhibition is on record?
**A.** inconclusive: -32.2% [inhibitor]

**Q.** With Cc1nc2c(C(=O)NCc3ccccc3Cl)c[nH]n2c(=O)c1Cl as the compound, how does the Potency read?
**A.** inconclusive: 89.1 µM [inhibitor, single point]

**Q.** CSc1ccc(/C=N\Nc2nncn2N)cc1 was tested. Which “activity change, negative = inhibition” value did it give?
**A.** inactive: 3.23%

**Q.** With Cc1cc(Nc2cc(C(=O)O)ccc2C)n2ncnc2n1 as the compound, how does the “activity change, negative = inhibition” value read?
**A.** inactive: 10.4%

**Q.** With CC(=O)NCCn1c(SCC(=O)NCc2ccco2)nc2ccccc2c1=O as the compound, how does the “activity change, negative = inhibition” value read?
**A.** inactive: 26.5%

**Q.** Which Potency does the source give for COc1nc(N)c(S(=O)(=O)c2ccc(C)cc2)cc1C#N here?
**A.** inconclusive: 89.1 µM [inhibitor, single point]

**Q.** Which “activity change, negative = inhibition” value does the source give for COc1ccccc1CNC(=O)C(C)Sc1ccsc1[N+](=O)[O-] (configuration not stated) here?
**A.** inactive: 3.63%

**Q.** How did the Potency turn out when O=C(N/N=C/c1cccc(Br)c1)c1ccc(Br)cc1 was run?
**A.** active: 10 µM

**Q.** Cc1c(Cc2ccccc2)c(=O)oc2cc(OCc3nn[nH]n3)ccc12 was tested. Which Potency did it give?
**A.** inconclusive: 89.1 µM [inhibitor, single point]

**Q.** COc1ccccc1-c1noc(-c2cccnc2)n1 was tested. Which Potency did it give?
**A.** inconclusive: 0.1 µM [inhibitor, full curve]

**Q.** CCC(C)/C=C/C1=CC2=C(Cl)C(=O)C3(C)OC(=O)C(C(=O)C(C)C(C)O)C3C2=CO1 (configuration not stated) was tested. Which Potency did it give?
**A.** active: 22.4 µM

**Q.** For CCOc1ccc(CCNC(=O)c2cc3cc4cc(OC)ccc4nc3s2)cc1OCC, which Potency is on record?
**A.** active: 14.1 µM

**Q.** For COc1ccc(C2CC(=O)N3CN(c4ccc(C)c(Cl)c4)CSC3=C2C#N)cc1OC (configuration not stated), which “activity change, negative = inhibition” value is on record?
**A.** inactive: 38.8%

**Q.** Which “activity change, negative = inhibition” value does the source give for CN(C)c1ccc(/C=C2\C(=N)N3C(=NC2=O)Sc2cc(S(C)(=O)=O)ccc23)cc1 here?
**A.** inactive: -2.57%

**Q.** N#Cc1cccc(C#N)c1Oc1ccc(N)cc1 was tested. Which activity change, negative = inhibition did it give?
**A.** inconclusive: -38% [inhibitor]

**Q.** How did the Potency turn out when CC(Oc1ccc(Cl)cc1)/C(N)=N/O (configuration not stated) was run?
**A.** inconclusive: 63.1 µM [inhibitor, single point]

**Q.** Which Potency does the source give for O=C(c1ccc(N2CCCCS2(=O)=O)cc1)N1CCN(c2ccc(N3CCOCC3)nn2)CC1 here?
**A.** inconclusive: 89.1 µM [inhibitor, single point]

**Q.** For Cc1ccc(NC(=O)c2cc(-c3cccs3)nc3ccccc23)nc1, which Potency is on record?
**A.** inconclusive: 70.8 µM [inhibitor, single point]

**Q.** With O=C(Cc1ccc(S(=O)(=O)N2CCOCC2)s1)NCCC(c1ccccc1)c1ccccc1 as the compound, how does the Potency read?
**A.** active: 22.4 µM

**Q.** For CNc1nnc(-c2ccco2)s1, which “activity change, negative = inhibition” value is on record?
**A.** inactive: -0.0763%

**Q.** With CCOC(=O)Cn1c(=O)c2c(nc3n2CCS3)n(C)c1=O as the compound, how does the Potency read?
**A.** inconclusive: 79.4 µM [inhibitor, partial curve]

**Q.** O=C(CCc1ccccc1)NNC(=O)COc1ccc(Br)cc1 was tested. Which Potency did it give?
**A.** inconclusive: 31.6 µM [inhibitor, single point]

**Q.** How did the “activity change, negative = inhibition” value turn out when COC1=CC(=Cc2c(N)n3nc(CC(=O)N4CCCCC4)sc3nc2=O)C=C(OC)C1=O was run?
**A.** inactive: 16.9%

**Q.** How did the “activity change, negative = inhibition” value turn out when COCCN1Cc2cccc(C(=O)Nc3ccc(C(=O)OC)cc3)c2C1=O was run?
**A.** inactive: 10.4%

**Q.** Which “activity change, negative = inhibition” value does the source give for CCOc1ccc(C)cc1S(=O)(=O)n1cnc2ccccc21 here?
**A.** inactive: -7.8%

**Q.** COc1ccc(CCn2c(=S)[nH]c3cc(C(=O)NCc4ccco4)ccc3c2=O)cc1OC was tested. Which Potency did it give?
**A.** active: 22.4 µM

**Q.** Which activity change, negative = inhibition does the source give for COc1ccc(OC)c(NC(=O)c2nc(S(=O)(=O)Cc3ccccc3)ncc2Cl)c1 here?
**A.** inconclusive: -44.6% [inhibitor]

**Q.** With CC(=O)Nc1ccc(NC(=O)CSc2nnc(-c3cc(C)[nH]n3)n2N)cc1 as the compound, how does the “activity change, negative = inhibition” value read?
**A.** inactive: -0.535%

**Q.** For COc1cc(F)c(S(=O)(=O)N2CCOc3ccccc32)cc1OC, which Potency is on record?
**A.** inconclusive: 79.4 µM [inhibitor, partial curve]

**Q.** With CCOc1ccc(NC(=O)CSc2oc(-c3cccs3)nc2S(=O)(=O)c2ccc(C)cc2)cc1 as the compound, how does the Potency read?
**A.** inconclusive: 2.82 µM [inhibitor, full curve]

**Q.** Which “activity change, negative = inhibition” value does the source give for CCc1ccc(OCC(=O)Nc2ccc3oc(=O)ccc3c2)cc1 here?
**A.** inactive: 0.241%

**Q.** CCNC(=O)C1CC(=O)N(Cc2ccc3c(c2)OCO3)C(=Nc2ccc(F)cc2)S1 (configuration not stated) was tested. Which Potency did it give?
**A.** inconclusive: 89.1 µM [inhibitor, single point]

**Q.** Which Potency does the source give for CCC1CCCCN1S(=O)(=O)c1ccc(C(=O)N(CCCN(C)C)c2nc3cc4c(cc3s2)OCO4)cc1 (configuration not stated) here?
**A.** inconclusive: 35.5 µM [inhibitor, single point]

**Q.** With COc1ccc(OC)c(NC(=S)N2CCc3ccccc3C2)c1 as the compound, how does the Potency read?
**A.** inconclusive: 100 µM [inhibitor, single point]

**Q.** With O/N=C/c1cc(Cl)ccc1OCc1cccc2ccccc12 as the compound, how does the Potency read?
**A.** inconclusive: 39.8 µM [inhibitor, single point]

**Q.** COc1ccccc1NC(=O)c1sc2nc3c(c(C(F)(F)F)c2c1N)CN(C(C)=O)CC3 was tested. Which Potency did it give?
**A.** inconclusive: 35.5 µM [inhibitor, partial curve, poor fit]

**Q.** For COc1ccc(-c2ccnc(SCC(=O)c3ccc(Br)cc3)n2)cc1, which Potency is on record?
**A.** inconclusive: 89.1 µM [inhibitor, single point]

**Q.** COc1ccc(NC(=O)c2cnc(Nc3ccc(C)c(Cl)c3)c3ccccc23)c(OC)c1 was tested. Which Potency did it give?
**A.** inconclusive: 39.8 µM [inhibitor, partial curve]

**Q.** For CC(=O)Nc1cccc(NC(=O)CSc2ccc(-c3ccccn3)nn2)c1, which Potency is on record?
**A.** active: 25.1 µM

**Q.** Which “activity change, negative = inhibition” value does the source give for CCOc1ccc(NC(=O)Cn2cc(C(=O)c3ccc(CC)cc3)c(=O)c3cc4c(cc32)OCO4)cc1 here?
**A.** inactive: 21%

**Q.** How did the “activity change, negative = inhibition” value turn out when O=C(COC(=O)c1ccc(Cl)nc1)NCc1ccco1 was run?
**A.** inactive: 18.4%

**Q.** Cc1cc(C(=O)N/N=C/c2ccc(O)c(O)c2O)c(C)n1-c1ccccc1 was tested. Which Potency did it give?
**A.** inconclusive: 8.91 µM [inhibitor, full curve]

**Q.** O=C1NC(=S)S/C1=C\C=C\c1ccc([N+](=O)[O-])o1 was tested. Which activity change, negative = inhibition did it give?
**A.** inconclusive: -114% [inhibitor]

**Q.** Which Potency does the source give for CCOc1cc(NC(=O)C2CCCCC2)c(OCC)cc1NC(=O)c1ccco1 here?
**A.** inconclusive: 89.1 µM [inhibitor, single point]

**Q.** Which Potency does the source give for CC(Sc1ccsc1[N+](=O)[O-])C(=O)NCCc1ccc(Cl)cc1 (configuration not stated) here?
**A.** inconclusive: 0.708 µM [inhibitor, full curve, poor fit]

**Q.** With O=C1c2ccccc2NC(c2cccc(Cl)c2)N1N=C1CCCCCC1 (configuration not stated) as the compound, how does the “activity change, negative = inhibition” value read?
**A.** inactive: -6.54%

**Q.** With N#Cc1c(-c2ccccc2)cc(-c2ccco2)c(C#N)c1N as the compound, how does the Potency read?
**A.** active: 39.8 µM

**Q.** How did the “activity change, negative = inhibition” value turn out when Cn1nnnc1SCCCNCc1cccc(OCc2ccccc2F)c1 was run?
**A.** inactive: 6.03%

**Q.** With COc1ccc(CC(=O)OCC(=O)NC(=O)NC2CCCCC2)cc1 as the compound, how does the Potency read?
**A.** inconclusive: 100 µM [inhibitor, single point]

**Q.** CN(C)S(=O)(=O)c1ccc(C(=O)NCCSc2c(-c3ccc(Br)cc3)[nH]c3ccccc23)cc1 was tested. Which “activity change, negative = inhibition” value did it give?
**A.** inactive: 13.2%

**Q.** Which Potency does the source give for COc1ccc(S(=O)(=O)/N=C2/NC(=O)/C(=C/c3ccco3)S2)cc1 here?
**A.** active: 31.6 µM

**Q.** Which Potency does the source give for COC(=O)c1ccc(OCC(=O)c2cccc(OC)c2)cc1 here?
**A.** inconclusive: 89.1 µM [inhibitor, single point]

**Q.** How did the “activity change, negative = inhibition” value turn out when Cc1ccc(NC(=O)C2CCCN(c3ncnc4onc(C)c34)C2)c(Cl)c1 (configuration not stated) was run?
**A.** inactive: -15.1%

**Q.** CNC(=O)c1c(NC(=O)c2cc(=O)c3cc(C)c(C)cc3o2)sc2c1CCCC2 was tested. Which Potency did it give?
**A.** inconclusive: 89.1 µM [inhibitor, single point]
